Here are results for 4 substances from publication PMC10762086.

Protein sequences, listed by entry. Tags and fused reporters are not part of them. Lines headed by an entry give the natural chain unless they say otherwise; changes in a name come on top.
UniProt P18901: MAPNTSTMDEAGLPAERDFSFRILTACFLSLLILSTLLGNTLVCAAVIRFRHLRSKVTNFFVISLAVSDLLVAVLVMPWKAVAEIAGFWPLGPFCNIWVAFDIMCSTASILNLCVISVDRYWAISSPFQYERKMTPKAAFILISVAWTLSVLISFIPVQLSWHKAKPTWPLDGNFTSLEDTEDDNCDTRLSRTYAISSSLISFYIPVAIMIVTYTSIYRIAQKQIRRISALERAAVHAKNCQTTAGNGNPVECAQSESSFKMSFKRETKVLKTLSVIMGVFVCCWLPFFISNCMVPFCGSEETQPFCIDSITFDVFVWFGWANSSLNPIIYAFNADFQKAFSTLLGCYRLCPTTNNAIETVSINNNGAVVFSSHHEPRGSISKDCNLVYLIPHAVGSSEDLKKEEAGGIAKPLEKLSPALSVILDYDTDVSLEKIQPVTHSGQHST

Results are given in words; binding and its absence hold for the method and conditions named. Binding seen in cells or lysates may run through a third protein. Some binding calls cover weakened binding; strength is not graded here.

In assay [1] the target is GluN1-GluN2A NMDAR: carboxyl terminally tagged GluN1-GFP co-expressed with HA-GluN2A in COS-7 cells (UniProt P35439). The assay can be described thus: FRET or BRET; frequency-domain FRET-FLIM in COS-7 cells co-transfected 1:1:1 with GluN1-GFP, GluN2 subunit and D1R-mCherry; GFP lifetime read 20-24 hours after transfection.
The target of assay [2] is D2R, endogenous in rat hippocampus (rat (endogenous in hippocampus)) (UniProt P61169). The assay can be described thus: co-IP; rat hippocampus protein extract (500-700 µg; P8 and P36 animals) in lysis buffer with 150 mM NaCl, 0.5% deoxycholate, 1% NP-40, 1% Triton X-100, 0.1% SDS, pH 7.4; precipitated with antibodies against D1R or D2R (2 µg) on protein A/G agarose, 4 °C, 12 hours; blotted for GluN2A or GluN2B.

For assay [3], the target named is GluN1-GluN2B NMDAR: GluN1-GFP co-expressed with GluN2B in COS-7 cells (UniProt P35439). Nature of the assay: FRET or BRET; frequency-domain FRET-FLIM in COS-7 cells co-transfected 1:1:1 with GluN1-GFP, GluN2 subunit and D1R-mCherry; GFP lifetime read 20-24 hours after transfection. (In general: In BRET a luciferase serves as donor, and the signal depends on an acceptor being close.)

Assay [4] addresses D1R, endogenous in rat hippocampus (rat (endogenous in hippocampus)) (UniProt P18901). The assay can be described thus: co-IP; rat hippocampus protein extract (500-700 µg; P8 and P36 animals) in lysis buffer with 150 mM NaCl, 0.5% deoxycholate, 1% NP-40, 1% Triton X-100, 0.1% SDS, pH 7.4; precipitated with antibodies against D1R or D2R (2 µg) on protein A/G agarose, 4 °C, 12 hours; blotted for GluN2A or GluN2B.

With “phosphomimic form of D1R, carboxyl terminally tagged D1R (S397D)-mCherry (from UniProt P18901 1-446) (receptor)”, the binding result in assay [1] is given as “binds”.

Consider “GluN2B subunit of the NMDAR, endogenous in rat hippocampus (from UniProt Q00960 27-1482)”, for which, in assay [2], the binding result was “binds”. As to “carboxyl terminally tagged D1R (WT)-mCherry (from UniProt P18901 1-446) (receptor)”, the binding entry in assay [3] and in assay [1] was “binds” each time.

Regarding “GluN2A subunit of the NMDAR, endogenous in rat hippocampus (from UniProt Q00959 23-1464)”, the binding entry in assay [4] was “binds”.
